{"source": "patent US8986994B2", "about": "“Substituted pyridines and pyrimidines” (Technische Universitaet Wien, priority 2009, dated 2015)", "system": "ANF (P19 cells)", "assay": "ANF promoter luciferase reporter assay in P19 cells", "format": "cell-based, mouse", "details": "1 μM for 8 days, TOPflash and Nkx2.5 reporter assays together", "note": "For at least one compound, name, drawing or mass did not settle the structure.", "data": [{"compound": "CC1=C(/C=C/C(C)=C/C=C/C(C)=C/C(=O)O)C(C)(C)CCC1", "note": "[Retinoic acid, reference compound]", "values": [{"measurement": "luciferase signal in all three reporter assays", "value": "potently increases the luciferase signal in all three reporter assays"}]}]}
